Where “and” joins values, the source holds several entries; their conditions need not be identical. Equal values may be shown once. The whole screen tested about 410,000 compounds, of which about 18,000 (4.4%) were called active. Inconclusive results, whose numbers are uncertain, are shown with a selection of clear calls. No stated cut-off is given here; in the data, active means activity change below about -60%; inconclusive means no clear call, values can overlap the other calls; inactive means above about -39%.
Test: qHTS Assay for inhibitors of the human cytomegalovirus (HCMV)
Settings: HFF cells, HCMV-luciferase reporter, 72 h; at 57.5 µM; stronger effect = lower value
How it was run: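 After 16 h attachment at 37C, HFF cells received test compound and HCMV-luciferase (1 PFU/cell); reporter luminescence read 72 h later, data normalized against buffer-only and known inhibitor Salinomycin.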
On the % scale 0 is the no-effect control and ±100 the full control effect.

SMILES	activity change, negative = inhibition
CCOC(=O)c1ccccc1NC(=O)CN1CCCN(Cc2cccc(Cl)c2)S1(=O)=O	inconclusive: 0%
CCOC(=O)c1cnc2c(c(C)nn2CC)c1NC1CC1	inconclusive: -50.7%
COc1ccc(NC(=O)CN2C(=O)N(C)Cc3ccccc32)c(C)c1	inconclusive: -43.1%
O=C(COC(=O)/C=C/c1cccc(F)c1)Nc1ccccc1-c1ccccc1	inconclusive: -42.2%
O=C(COC(=O)c1ccc(O)cc1O)NC1CCCCCC1	inactive: 10.5%
Cc1ccc(NS(=O)(=O)c2cc(-c3cnc(C4CC4)o3)ccc2C)cc1Cl	active: -64.2%
COc1ccccc1C(=O)N(CCC1CCCN1C)c1nc2ccccc2s1 (configuration not stated)	active: -77.2%
CCC(C)(C)NC(=O)CN(C(=O)c1snc(C(N)=O)c1N)c1ccc2c(c1)OCCO2	inconclusive: -43.3%
CCC(SC1=NCCS1)C(=O)Nc1nnc(-c2ccccc2OC)s1 (configuration not stated)	active: -97.3%
O=C(/C=C/c1ccco1)N1CCN(S(=O)(=O)c2cccc([N+](=O)[O-])c2)CC1	inactive: -2.35%
CC(C)N1CCC(N2CCN(C3CCCCC3)CC2CCO)CC1 (configuration not stated)	inconclusive: -44.2%
Cc1noc(C)c1N=Nc1ccc(Br)cc1C(=O)O	inconclusive: -50.6%
CC1(C(=O)NCCc2ccccc2)Cc2c(-c3cccc(C(F)(F)F)c3)ccnc2O1 (configuration not stated)	active: -61.9%
CC(=O)c1c(C)[nH]c(C(=O)OC(C)C(=O)Nc2ccc(C)c(S(=O)(=O)N3CCOCC3)c2)c1C (configuration not stated)	inactive: -12.5%
CCOC(=O)CC(=O)CSc1nc(C)cc(-c2cccnc2)c1C#N	inconclusive: -43.7%
O=S(=O)(Nc1ccc(Cc2ccncc2)cc1)c1ccc(Cl)c(Cl)c1	inconclusive: -48.9%
Cc1nn(-c2ccccc2)c(C)c1/C=N/NC(=O)c1cc(-c2ccc(Cl)s2)[nH]n1	inactive: -11.2%
CCc1nnc2c(Nc3ccc(N(CC)CC)cc3C)nc3ccccc3n12	inconclusive: 0%
O=C(CSc1ncn[nH]1)N1CCCCC1	inconclusive: -41.1%
O=C(Nc1ccccc1N1CCCC1)c1ccc2ccccc2c1	inconclusive: -52.1%
O=S(=O)(c1ccc(F)cc1)N1CCN(c2ccc(F)cc2)CC1	inactive: -8.95%
CCOc1ccccc1N(C)C(=O)Cn1ncc2c([nH]c3ccc(C)cc32)c1=O	inconclusive: -44.2%

In the list so far, these contain a Cl atom:
SMILES	activity change, negative = inhibition
CCOC(=O)c1ccccc1NC(=O)CN1CCCN(Cc2cccc(Cl)c2)S1(=O)=O	inconclusive: 0%
Cc1ccc(NS(=O)(=O)c2cc(-c3cnc(C4CC4)o3)ccc2C)cc1Cl	active: -64.2%
O=S(=O)(Nc1ccc(Cc2ccncc2)cc1)c1ccc(Cl)c(Cl)c1	inconclusive: -48.9%
Cc1nn(-c2ccccc2)c(C)c1/C=N/NC(=O)c1cc(-c2ccc(Cl)s2)[nH]n1	inactive: -11.2%

Remaining list, next part

SMILES	activity change, negative = inhibition
CCN(C(=O)c1c(-c2ccccc2Cl)noc1C)C1CCCCC1	inconclusive: -42.9%
CC(C)Cc1nn2c(=O)cc(COC(=O)c3ccccc3NC(=O)C3CCCCC3)nc2s1	inactive: 36.4%
CCCc1nn2c(=O)cc(COC(=O)c3ccc(NC(=O)C4CCCCC4)cc3)nc2s1	inactive: -13.4%
Cc1ncc(CN2CCCC(C(=O)Nc3ccc(-c4cccc(F)c4)cc3)C2)s1 (configuration not stated)	inconclusive: -48.3%
Cc1cc(/C=N\NC(=O)COc2cccc3cccnc23)c(C)n1-c1ccccc1	inconclusive: -58.1%
COc1ccc(C(=O)Nc2ccc(S(=O)(=O)N(Cc3ccccc3)c3ccccc3)cc2)cc1	inconclusive: -49.5%
CCCNCC1C(Oc2ccc(Cl)cc2)C(=O)N1c1ccccc1C (configuration not stated)	inactive: -27.1%
CC(NC(=S)Nc1cccc(C(F)(F)F)c1)C(C)(C)C (configuration not stated)	inconclusive: -42.1%
COc1ccc(-c2nc(Cn3c(SCc4cccc(C(F)(F)F)c4)nc4cccnc43)c(C)o2)cc1OC	inactive: -31.7%
CCOc1ccccc1NC(=O)Nc1cccc(S(N)(=O)=O)c1	inconclusive: -42.1%
COc1ccc(C(=O)NCC(=O)NC2=NCCS2)cc1	inactive: 13.8%
CCOc1ccc(CCNC(=O)COC(=O)/C=C/c2ccc(OCC#N)c(OC)c2)cc1OCC	inactive: -25.9%
CC(C)OC(=O)c1ccc(NC(=S)NC(=O)c2cncc(Br)c2)cc1	inconclusive: -41.7%
COc1ccc(-c2ccc(CCC(=O)O)n2-c2ccccc2O)cc1	inactive: -3.69% and inactive: -5.01%
COC(=O)CCC(C(=O)CN1C(=O)c2ccccc2C1=O)N1C(=O)c2ccccc2C1=O (configuration not stated)	inactive: 32.7%
CCCCOC(=O)Nc1cc(Cl)ccc1C	active: -80.7%
CC(=NCCN1CCOCC1)C1=C(O)c2ccccc2C1=O	active: -102%
CCOC(=O)[C@@H]1[C@H]2COc3cc(OC)ccc3[C@H]2N2C(=O)N(c3ccc(C)cc3)C(=O)[C@@]12C	active: -75.2%
O=C1Nc2cc(Cl)ccc2Nc2cscc21	inconclusive: -40%
COc1ccc(-n2c(-c3ccccc3Br)nc3ccccc3c2=O)cc1	active: -62.8%
Cc1nnsc1S(=O)(=O)c1ccccc1	inconclusive: -45.8%
CC(=O)N1CC(C)Oc2ccc(S(=O)(=O)NC(CC(=O)O)c3cc(C)ccc3C)cc21 (configuration not stated)	inconclusive: -41.9%

SMILES	activity change, negative = inhibition
O=C(Nc1ccc2c(c1)OC1(CCCC1)O2)C1CC1	inactive: -0.731%
CCOC(=O)CC(NS(=O)(=O)Cc1ccccc1)c1ccc(C)cc1 (configuration not stated)	inconclusive: -52.6%
CCOC(=S)SCc1cn2ccc(C)cc2n1	active: -65%
O=C(Nc1ccccc1[N+](=O)[O-])c1ccc(S(=O)(=O)N2CCCC2)cc1	inconclusive: -53.2%
CC(CC(=O)N1CCN(S(=O)(=O)c2ccc(Cl)cc2)CC1)n1cncn1 (configuration not stated)	inactive: -9.69%
CCOC(=O)c1c(C)[nH]c(N=Nc2ccccc2Cl)c1C	inactive: 67.7%
CCC(C)NC(=O)CS(=O)Cc1nc(-c2cccc(C)c2)oc1C (configuration not stated)	inactive: -11.6%
COC(=O)COc1ccc2c(=O)c(-c3ccccc3)coc2c1	inconclusive: -51.9%
CN1CCN(C(=O)c2ccc(Cl)cc2)CC1	inactive: 66.6%
O=C(Nc1nccs1)c1ccc(CSc2nnnn2-c2ccccc2)cc1	inconclusive: -47.4%
O=C(O)/C=C/c1cn(Cc2ccccc2Cl)nc1-c1ccccc1	inactive: -0.347%
Cn1c(=O)c2sccc2n2c(CCCC(=O)NC3CCCCC3)nnc12	inconclusive: -44.2%
COc1cccc(Oc2cnc(N)nc2-c2ccc(OC)cc2O)c1	inactive: -5.06%
COc1ccc2[nH]cc(/C=C/C(=O)c3ccccc3)c2c1	inactive: 2.82%
COC(=O)c1ccc(C(=O)Nc2nc3cc(N)c(C)cc3s2)cc1	inconclusive: -48.4%
COC(=O)c1c(NC(=O)Cc2coc3ccc(C(C)C)cc23)sc2c1CCC2	inactive: 16.3%
Cc1occc1C(=O)NNC(=S)NCc1ccc(Cl)cc1	active: -68.9%
COC(=O)C1=C(c2cccc(C#N)c2)C[C@@H]2CC[C@H]1N2C(=O)NCCc1ccccc1	inactive: -0.582%
Cc1ccc(C(=O)NCCc2ccc(S(N)(=O)=O)cc2)cc1-n1cnc2cccnc21	inconclusive: 0%
O=C(CSc1nc(-c2ccccc2)cs1)N1CCc2ccccc21	inconclusive: -48.1%
CC(C)Oc1ccc(S(=O)(=O)N2CCOCC2)cc1NC(=O)C(C)Oc1ccc(F)cc1 (configuration not stated)	inconclusive: -44.4%
O=C(NCc1n[nH]c(=S)n1-c1cccc(C(F)(F)F)c1)c1ccco1	inactive: -16.3%

SMILES	activity change, negative = inhibition
Cc1cc(/C=C2\SC(=S)N(C)C2=O)c(C)n1-c1ccc(O)cc1	active: -96.9%
Oc1ccc(Br)cc1/C=N/Nc1nc(N2CCCCC2)nc(N2CCOCC2)n1	inconclusive: -41.4%
O=S(=O)(NCC(c1ccco1)S(=O)(=O)c1cccs1)c1ccc(Cl)cc1 (configuration not stated)	inconclusive: -53.7%
COc1ccc(CC(=O)Nc2cccc(/C(C)=N/NC(=O)c3cccc([N+](=O)[O-])c3)c2)cc1	inactive: -27.5%
CCCn1c(=N)n(CC(=O)C(C)(C)C)c2ccccc21	inactive: -25.5%
Cc1ccc(C)c(C(=O)OCC(=O)N(C)c2ccccc2)c1	inconclusive: -41.6%
CCS(=O)(=O)c1ncc(Cl)c(C(=O)Nc2ccccc2)n1	active: -103%
C[C@H](CO)N1C[C@H](C)[C@@H](CN(C)Cc2ccc(C(=O)O)cc2)Oc2c(NC(=O)Cc3ccccc3)cccc2C1=O	inactive: -24.2%
COc1ccc(C2c3ccc(O)cc3Oc3ncn(Cc4ccco4)c(=N)c32)cc1OC (configuration not stated)	inconclusive: -45%
Cc1cccc(Cn2cnc3ccccc32)c1	inactive: -14.9%
CC(NC(=O)c1cn(C(C)c2ccccc2F)nn1)c1ccncc1 (configuration not stated)	inconclusive: -43.1%
CC[n+]1c(/C=C/Nc2ccccc2)oc2ccccc21	inconclusive: -50.8%
CCc1cccc(C)c1NC(=S)NCCc1c(C)[nH]c2ccc(C)cc12	active: -71.7%
Oc1ccc(C[C@H]2CNCCN2CCc2cccc(F)c2)cc1	inactive: -6.36%
Cc1cccc(NC(=O)NCc2ccc3c(c2)cc(C)n3C)c1	inconclusive: -57.2%
O=C(Nc1ccc([N+](=O)[O-])cc1)C(c1ccccc1)c1ccccc1	inactive: -9.67%
OCCCn1c(CCNc2nc(-c3ccc(F)cc3)cs2)nc2cc(C(F)(F)F)ccc21	inconclusive: -43.2%
C=CC[C@H](CC(=O)N(CCO)Cc1ccccc1)C(=O)N[C@H](COC(=O)[C@@H](CC=C)CC(=O)OC(C)(C)C)c1ccccc1	inconclusive: -43.7%
O=C(N/N=C/c1ccc(-c2cccc(C(F)(F)F)c2)o1)c1ccccc1Br	active: -62%
CC1(C(=O)NCc2ccc3c(c2)OCO3)CCN1C(=O)Cc1cccc2ccccc12 (configuration not stated)	inconclusive: -48.2%
CC1=C(C(=O)OC2CCCCC2)C(c2ccco2)C2=C(CC(C)(C)CC2=O)N1 (configuration not stated)	inconclusive: -47.2%
